Data: article doi:10.1101/377275
No constants are given. Whether binding was seen depends on the method and setting. Binding seen in cells or lysates may run through a third protein. Some binding calls cover weakened binding; strength is not graded here.

The chains behind the UniProt entries cited, without tags or fusion partners.
UniProt Q9WVL2: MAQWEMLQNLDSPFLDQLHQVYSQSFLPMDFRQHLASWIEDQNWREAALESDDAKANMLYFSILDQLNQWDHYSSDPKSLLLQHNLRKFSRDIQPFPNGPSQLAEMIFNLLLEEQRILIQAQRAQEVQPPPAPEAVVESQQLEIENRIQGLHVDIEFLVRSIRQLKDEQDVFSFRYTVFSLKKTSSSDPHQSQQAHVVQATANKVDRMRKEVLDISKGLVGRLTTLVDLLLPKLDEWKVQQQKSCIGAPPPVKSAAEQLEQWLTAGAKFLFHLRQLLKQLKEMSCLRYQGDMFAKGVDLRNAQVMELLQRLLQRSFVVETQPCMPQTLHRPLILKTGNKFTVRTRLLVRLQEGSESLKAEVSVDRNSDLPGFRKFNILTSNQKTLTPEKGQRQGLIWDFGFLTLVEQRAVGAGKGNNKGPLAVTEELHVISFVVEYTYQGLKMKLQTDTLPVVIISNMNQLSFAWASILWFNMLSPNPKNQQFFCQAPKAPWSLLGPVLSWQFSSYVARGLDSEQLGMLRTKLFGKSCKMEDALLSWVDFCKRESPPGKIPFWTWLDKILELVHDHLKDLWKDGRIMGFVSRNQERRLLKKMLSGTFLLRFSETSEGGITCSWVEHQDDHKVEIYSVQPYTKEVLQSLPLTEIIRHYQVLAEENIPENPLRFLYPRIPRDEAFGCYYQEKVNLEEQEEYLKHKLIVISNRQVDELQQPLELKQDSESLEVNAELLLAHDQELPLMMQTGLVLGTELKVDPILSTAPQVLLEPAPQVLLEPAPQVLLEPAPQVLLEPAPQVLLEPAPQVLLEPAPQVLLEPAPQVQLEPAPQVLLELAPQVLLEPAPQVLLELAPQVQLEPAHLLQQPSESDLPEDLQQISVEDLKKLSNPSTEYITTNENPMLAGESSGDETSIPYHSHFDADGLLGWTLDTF

T1: interferon regulatory factor 9 (IRF9) (mouse (endogenous in BMDM and Raw 264.7)), Q61179
T1 chain: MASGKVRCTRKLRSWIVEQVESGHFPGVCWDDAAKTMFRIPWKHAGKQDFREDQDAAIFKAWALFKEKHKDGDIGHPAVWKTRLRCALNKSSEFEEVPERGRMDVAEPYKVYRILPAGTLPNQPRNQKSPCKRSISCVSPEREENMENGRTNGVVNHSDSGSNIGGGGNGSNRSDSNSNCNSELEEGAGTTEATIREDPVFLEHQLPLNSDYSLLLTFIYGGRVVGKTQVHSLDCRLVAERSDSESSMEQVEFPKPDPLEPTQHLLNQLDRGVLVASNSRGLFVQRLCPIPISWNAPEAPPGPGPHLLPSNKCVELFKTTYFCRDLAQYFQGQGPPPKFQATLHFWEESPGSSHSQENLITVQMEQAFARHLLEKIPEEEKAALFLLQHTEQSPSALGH


Assays:
[1] = molecular target: T1, interferon regulatory factor 9 (IRF9) …; assay: co-IP; details: remark: other sources report otherwise
[2] = molecular target: STAT2 (mouse (endogenous in BMDM and Raw 264.7)) (UniProt Q9WVL2); assay: co-IP

Row | binding [1] | binding [2] | Binder
1 | no binding |  | STAT1, P42225 1-749 (protein) MSQWFELQQLDSKFLEQVHQLYDDSFPMEIRQYLAQWLEKQDWEHAAYDVSFATIRFHDLLSQLDDQYSRFSLENNFLLQHNIRKSKRNLQDNFQEDPVQMSMIIYNCLKEERKILENAQRFNQAQEGNIQNTVMLDKQKELDSKVRNVKDQVMCIEQEIKTLEELQDEYDFKCKTSQNREGEANGVAKSDQKQEQLLLHKMFLMLDNKRKEIIHKIRELLNSIELTQNTLINDELVEWKRRQQSACIGGPPNACLDQLQTWFTIVAETLQQIRQQLKKLEELEQKFTYEPDPITKNKQVLSDRTFLLFQQLIQSSFVVERQPCMPTHPQRPLVLKTGVQFTVKSRLLVKLQESNLLTKVKCHFDKDVNEKNTVKGFRKFNILGTHTKVMNMEESTNGSLAAELRHLQLKEQKNAGNRTNEGPLIVTEELHSLSFETQLCQPGLVIDLETTSLPVVVISNVSQLPSGWASILWYNMLVTEPRNLSFFLNPPCAWWSQLSEVLSWQFSSVTKRGLNADQLSMLGEKLLGPNAGPDGLIPWTRFCKENINDKNFSFWPWIDTILELIKNDLLCLWNDGCIMGFISKERERALLKDQQPGTFLLRFSESSREGAITFTWVERSQNGGEPDFHAVEPYTKKELSAVTFPDIIRNYKVMAAENIPENPLKYLYPNIDKDHAFGKYYSRPKEAPEPMELDDPKRTGYIKTELISVSEVHPSRLQTTDNLLPMSPEEFDEMSRIVGPEFDSMMSTV
2 |  | binds | interferon regulatory factor 9 (IRF9) (protein, UniProt Q61179 1-399) MASGKVRCTRKLRSWIVEQVESGHFPGVCWDDAAKTMFRIPWKHAGKQDFREDQDAAIFKAWALFKEKHKDGDIGHPAVWKTRLRCALNKSSEFEEVPERGRMDVAEPYKVYRILPAGTLPNQPRNQKSPCKRSISCVSPEREENMENGRTNGVVNHSDSGSNIGGGGNGSNRSDSNSNCNSELEEGAGTTEATIREDPVFLEHQLPLNSDYSLLLTFIYGGRVVGKTQVHSLDCRLVAERSDSESSMEQVEFPKPDPLEPTQHLLNQLDRGVLVASNSRGLFVQRLCPIPISWNAPEAPPGPGPHLLPSNKCVELFKTTYFCRDLAQYFQGQGPPPKFQATLHFWEESPGSSHSQENLITVQMEQAFARHLLEKIPEEEKAALFLLQHTEQSPSALGH
